Source: PubChem BioAssay AID624297 (National Center for Advancing Translational Sciences (NCATS), 2012)
Hit rate of the full screen: of about 340,000 compounds, about 6,200 (1.8%) were called active. Inconclusive results, whose numbers are uncertain, are shown with a selection of clear calls. Calls come from the whole dose curve; as a rule, active = well fitted activation curve with a large enough effect; inconclusive = small, poorly fitted or top-dose-only effect; inactive = no such curve, though single readings can be large or run the other way. Potencies beside an inconclusive call are fits to weak or partial responses and may not hold up.

Test: A quantitative high throughput screen for small molecules that induce DNA re-replication in SW480 colon adenocarcinoma cells. For re-replication activation: % of control where 0% means no effect. Note: nearly all actives have a fitted effect of over 55% in size.
Conditions: Hoechst DNA content imaging, 48 h; re-replication activation: at 46.1 µM (top of the series) unless noted
Method in brief: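 DNA re-replication was detected as more nuclei of elevated Hoechst intensity after 48 hr exposure to compound (23 nL pinned per well of 250 cells).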
Potency is the fitted concentration of half-maximal effect.

| Structure (SMILES) | re-replication activation | Potency |
| --- | --- | --- |
| CCNC(=S)N(CCc1ccccc1C)Cc1cc2cc(OC)c(OC)cc2[nH]c1=O | inactive: -6.4% |  |
| COCCN1C(=O)/C(=C/c2ccc(OCc3ccc(C(=O)O)cc3)c(OC)c2)SC1=Nc1ccccc1 | inactive: -693% |  |
| Cc1ccnc(NC(=O)C2CC(=O)N(Cc3ccccc3)C2)c1 (stereo not given) | inactive: 113% |  |
| O=C(N/C(=C\c1ccc(Br)cc1)c1nc2ccccc2[nH]1)c1ccco1 |  | inconclusive: 29.1 µM [activator, single point] |
| O=C(CN1C(=O)/C(=C/c2ccccc2F)Sc2ccccc21)NCC1CCCO1 (stereo not given) |  | inconclusive: 4.61 µM [activator, full curve, poor fit] |
| COc1ccc(CCN2CC(C(=O)NCc3nc4ccccc4n3C)CCC2=O)cc1 (stereo not given) |  | inconclusive: 29.1 µM [activator, single point] |
| COc1ccc(-c2csc3ncnc(N4CCN(S(=O)(=O)c5cccc(F)c5)CC4)c23)cc1 |  | inconclusive: 6.51 µM [activator, single point] |
| COc1ccc(C(=O)c2c(C(F)(F)F)oc3c2C(=O)c2ccccc2C3=O)cc1OC |  | active: 0.731 µM |
| CC(C)NS(=O)(=O)c1ccc(NC(=O)C(C)Oc2ccc(C(=O)c3ccccc3)cc2)cc1 (stereo not given) |  | inconclusive: 29.1 µM [activator, single point] |
| C=CCn1c(SCC(=O)Nc2sccc2C(N)=O)nc2sc(CC)cc2c1=O |  | inconclusive: 23.1 µM [activator, single point] |
| CN(C)CCNc1cc(-c2ccncc2)nc2ccccc12 |  | inconclusive: 0.082 µM [activator, full curve, poor fit] |
| COc1ccc(OC)c(S(=O)(=O)N2CCC(C(=O)Nc3cc(C)ccc3C)CC2)c1 |  | active: 4.61 µM |
| CC1=C(C(=O)OCC2CCCO2)C(c2coc3ccc(Cl)cc3c2=O)C2=C(CCCC2=O)N1 (stereo not given) |  | inconclusive: 6.51 µM [activator, single point] |
| O=C(c1cc(-c2cccnc2)nc2ccccc12)N1CCCc2ccccc21 |  | inconclusive: 18.4 µM [activator, single point] |
| Cc1ccccc1Nc1ccc(S(=O)(=O)N2CCOCC2)cc1[N+](=O)[O-] | inactive: 0.527% |  |
| Cc1c(F)cccc1NS(=O)(=O)c1ccc2c(c1)c(=O)n(C)c(=O)n2C | inactive: -11.3% |  |
| Cc1ccc(-n2nc(C)c3c2OC(N)=C(C#N)C3c2ccccc2F)cc1 (stereo not given) |  | inconclusive: 20.6 µM [activator, single point] |
| COc1ccc(CN(C(C)=O)c2cccc(C)c2C)cc1 |  | inconclusive: 20.6 µM [activator, single point] |
| Cc1cccc(OCC(=O)NC(C)C(=O)N/N=C/c2c(OCc3ccccc3)ccc3ccccc23)c1 (stereo not given) |  | inconclusive: 5.17 µM [activator, full curve] |
| CCCNC(=O)C1Cc2cc(S(=O)(=O)N3CCCC3)ccc2N1C(C)=O (stereo not given) | inactive: -5.35% |  |
| COc1ccccc1N1CCN(Cc2cc3c(cc2O)OCO3)CC1 | inactive: -2% |  |
| S=C(Nc1ccccc1)NC1CCN(Cc2ccccc2)CC1 | inactive: -5.13% |  |
| Cc1ccc(C(=O)Cn2c(C(=O)/C=C/c3ccccc3)nc3ccccc32)cc1 |  | inconclusive: 20.6 µM [activator, single point] |

| Structure (SMILES) | re-replication activation | Potency |
| --- | --- | --- |
| Cc1nnc(SCc2cccc3ccccc23)s1 |  | inconclusive: 1.84 µM [activator, partial curve, poor fit] |
| Cc1cnn(CCC(=O)NNC(=S)Nc2cccc(Cl)c2)c1 |  | active: 6.51 µM |
| O=C(Nc1ccc(Oc2cccnc2)cc1)c1ccccc1Cl | inactive: 11.8% |  |
| COC(=O)C(Oc1ccc2c(-c3ccc(OC)cc3)cc(=O)oc2c1)c1ccccc1 (stereo not given) |  | inconclusive: 5.17 µM [activator, partial curve, poor fit] |
| COc1ccc(C(CNC(=O)COc2cc(C)ccc2Cl)N2CCCCC2)cc1 (stereo not given) |  | inconclusive: 0.0052 µM [activator, full curve, poor fit] |
| O=C(c1ccccc1Cc1ccccc1)N1CCN(S(=O)(=O)c2ccccc2)CC1 |  | inconclusive: 23.1 µM [activator, partial curve, poor fit] |
| COCCn1c(SCC(=O)Nc2cc(C)on2)nc2c(c1=O)SC(C)C2 (stereo not given) |  | inconclusive: 16.4 µM [activator, single point] |
| CCS(=O)(=O)c1ncc(Cl)c(C(=O)Nc2ccccc2OC)n1 |  | active: 2.91 µM |
| Cc1ccc(CNC(=O)c2ccc3c(c2)NC(=O)CS3)cc1 | inactive: -10.5% |  |
| CN(C)c1nc(-c2ccccn2)nnc1-c1ccccc1 |  | inconclusive: 4.11 µM [activator, partial curve, poor fit] |
| COc1ccc(S(=O)(=O)n2c(CCN3CCOCC3)nc3ccccc32)cc1 | inactive: 12.6% |  |
| O=C(Cn1ncc2c1-c1ccccc1OC2)Nc1ccc(S(=O)(=O)N2CCCCC2)cc1 |  | inconclusive: 29.1 µM [activator, single point] |
| Cc1cc(=O)[nH]c(N=N/C(=N/Nc2ccccc2C)c2ccccc2)n1 |  | active: 5.17 µM |
| O=C(CCNS(=O)(=O)c1ccccc1C(F)(F)F)NNC(=O)c1csc(N2CCOCC2)n1 |  | inconclusive: 29.1 µM [activator, single point] |
| CC1=CCC2C(=O)N(c3cccc(C(=O)Nc4ccc(Cl)cc4)c3)C(=O)C2C1 (stereo not given) | inactive: -1.23% |  |
| COc1cccc(/C=N/Nc2ncnc(Cl)c2N)c1O |  | inconclusive: 0.58 µM [activator, full curve, poor fit] |
| N#Cc1cc2c(nc1SCC(=O)Nc1sc3c(c1C#N)CCC3)CCCCCC2 |  | inconclusive: 3.26 µM [activator, single point] |
| N#Cc1cccc(C(=O)OCC(=O)c2ccc3c(c2)NC(=O)CO3)c1 | inactive: 2.64% |  |
| CC(=O)Nc1ccc(SCC(=O)Nc2oc(C)c3c(C)n[nH]c(=O)c23)cc1 | inactive: -0.675% |  |
| Cc1cccc(C)c1Nc1c(-c2ccccn2)nc2ccccn12 |  | inconclusive: 16.4 µM [activator, partial curve, poor fit] |
| COc1ccc(NC(=O)CCSCCc2ccccn2)cc1OC | inactive: -3.53% |  |
| COC(=O)c1ccc2c(=O)n(Cc3ccco3)c(SCC(=O)Nc3ccc(C)c(Cl)c3)nc2c1 |  | inconclusive: 8.2 µM [activator, partial curve] |

Whole records, quoted from the list:
`Cc1cnn(CCC(=O)NNC(=S)Nc2cccc(Cl)c2)c1` reads Potency: active: 6.51 µM
`COCCn1c(SCC(=O)Nc2cc(C)on2)nc2c(c1=O)SC(C)C2` (stereo not given) reads Potency: inconclusive: 16.4 µM [activator, single point]
